# This continues a long series; more values of the same kind are listed elsewhere.
# Tested on: peripheral blood mononuclear cells (PBMC)
# Assay: Microarray analysis (3), dose-dependent intron expression in PBMC at 3, 10, 30 nM, Table 5
# Format: cell-based, human
# Description: PBMC was suspended in RPMI1640 medium (containing 10% FBS, penicillin, and streptomycin) to 5×10^6 cells/ml and 1 ml of the suspension was plated per well of a 24-well plate. Immediately, 111 μl of 10 times-concentrated (8E,12E,14E)-7-((4-cycloheptylpiperazin-1-yl)carbonyl)oxy-3,6,16,21-tetrahydroxy-6,10,12,16,20-pentamethyl-18,19-epoxytricosa-8,12,14-trien-11-olide was added to the well (six wells per each concentration tested). The cells were then cultured in an incubator with 5% carbon dioxide gas at 37° C. Three hours later, the supernatant was collected and centrifuged at 1500 rpm for five minutes. TRI reagent (SIGMA) (1 ml) was added to each well of the plate from which the supernatant was removed to harvest the cells, which was added to the centrifuged pellet to dissolve. RNA was purified in accordance with the protocol of TRI reagent. RNA was further purified using RNeasy (QIAGEN) and, in accordance with the protocol, DNaseI was added to the samples during the procedure. Absorbance at 260 nm was measured to quantify an amount of RNA.
# Ribosomal RNA was removed from 1 μg of each total RNA of control cells (n=3) and cells with the treatment (n=3) using RiboMinus Human/Mouse Transcriptome Isolation Kit (Invitrogen). Single stranded cDNA synthesis, double stranded cDNA synthesis, cRNA synthesis, second single stranded cDNA synthesis, cDNA fragmentation, and cDNA labeling in order were carried out for total RNA from which ribosomal RNA was removed, using GeneChip Whole Transcript Sense Target Labeling and Control Reagents (Affymetrix) to make a cDNA probe. Subsequently, the cDNA probe was used for hybridization with Human Exon 1.0 ST Array (Affymetrix). The array was washed and stained, and luminescence intensity was measured by a scanner.
# The expression level of the probe set and the gene was quantified by using Expression Console Ver. 1.0 (Affymetrix) with Summarization Method and Normalization Method being set to “Median polish as used in RMA” and “None”, respectively. The expression level of the probe was normalized with that of the gene.
# Probe sets showing that the normalized change in the level expression of the probe set in the group with the treatment at 30 nM was more than 5 times; the expression level of the probe set and the gene in the group with the treatment at 30 nM was more than 100; and probe set annotation was “extended, full, free”, were picked out. Regression analysis was performed with the probe sets extracted for the control group, the group with the treatment at 3 nM, the group with the treatment at 10 nM, and the group with the treatment at 30 nM to determine a p and q value for the slope of regression formula. A gene containing the probe sets with the q value of less than 5% was determined as a candidate gene with increased expression level of the intron regions (Table 5).
# In Table 5, for the gene evaluated, gene name (Gene Name), abbreviated name (Gene Symbol), accession number (Accession), alias name (Synonym), transcription cluster number in Human Exon 1.0 ST Array (Human Exon 1.0 ST Array Transcription Cluster ID), chromosome number (Chromosome), type of strand (Strand), start region (Start), stop region (Stop), and change in expression level per 1 nM (Fold Change/nM) were respectively shown.
smiles,measurement,setting,value
"CCC(O)C(C)C1OC1CC(C)(O)/C=C/C=C(\C)C1OC(=O)CC(O)CCC(C)(O)C(OC(=O)N2CCN(C3CCCCCC3)CC2)/C=C/C1C (centres unmarked) [E7107, (8E,12E,14E)-7-((4-cycloheptylpiperazin-1-yl)carbonyl)oxy-3,6,16,21-tetrahydroxy-6,10,12,16,20-pentamethyl-18,19-epoxytricosa-8,12,14-trien-11-olide]",Fold Change/nM,"introns of gene SERBP1, regression over control, 3, 10, 30 nM",1.04 nM⁻¹
same,Fold Change/nM,"introns of gene SERPINB8, regression over control, 3, 10, 30 nM",1.06 nM⁻¹
same,Fold Change/nM,"introns of gene SESN3, regression over control, 3, 10, 30 nM",1.07 nM⁻¹
same,Fold Change/nM,"introns of gene SF1, regression over control, 3, 10, 30 nM",1.04 nM⁻¹
same,Fold Change/nM,"introns of gene SF3B3, regression over control, 3, 10, 30 nM",1.04 nM⁻¹
same,Fold Change/nM,"introns of gene SIPA1L1, regression over control, 3, 10, 30 nM",1.06 nM⁻¹
same,Fold Change/nM,"introns of gene SLC7A5 // LAT1-3TM, regression over control, 3, 10, 30 nM",1.06 nM⁻¹
same,Fold Change/nM,"introns of gene SLC16A3, regression over control, 3, 10, 30 nM",1.07 nM⁻¹
same,Fold Change/nM,"introns of gene SLC35B1, regression over control, 3, 10, 30 nM",1.04 nM⁻¹
same,Fold Change/nM,"introns of gene SLC43A2, regression over control, 3, 10, 30 nM",1.06 nM⁻¹
same,Fold Change/nM,"introns of gene SLC43A3, regression over control, 3, 10, 30 nM",1.04 nM⁻¹
same,Fold Change/nM,"introns of gene SLK, regression over control, 3, 10, 30 nM",1.04 nM⁻¹
same,Fold Change/nM,"introns of gene SLU7, regression over control, 3, 10, 30 nM",1.05 nM⁻¹
same,Fold Change/nM,"introns of gene SMC1A, regression over control, 3, 10, 30 nM",1.05 nM⁻¹
same,Fold Change/nM,"introns of gene SNRP70, regression over control, 3, 10, 30 nM",1.04 nM⁻¹
same,Fold Change/nM,"introns of gene SNX9 // SYNJ2, regression over control, 3, 10, 30 nM",1.06 nM⁻¹
same,Fold Change/nM,"introns of gene SORL1 // C11orf32, regression over control, 3, 10, 30 nM",1.04 nM⁻¹
same,Fold Change/nM,"introns of gene SOS2, regression over control, 3, 10, 30 nM",1.06 nM⁻¹
same,Fold Change/nM,"introns of gene SPTAN1, regression over control, 3, 10, 30 nM",1.04 nM⁻¹
same,Fold Change/nM,"introns of gene STARD7, regression over control, 3, 10, 30 nM",1.06 nM⁻¹
same,Fold Change/nM,"introns of gene STAT5B, regression over control, 3, 10, 30 nM",1.04 nM⁻¹
same,Fold Change/nM,"introns of gene SYAP1, regression over control, 3, 10, 30 nM",1.06 nM⁻¹
same,Fold Change/nM,"introns of gene TBC1D23, regression over control, 3, 10, 30 nM",1.07 nM⁻¹
same,Fold Change/nM,"introns of gene TBK1, regression over control, 3, 10, 30 nM",1.07 nM⁻¹
same,Fold Change/nM,"introns of gene TBP, regression over control, 3, 10, 30 nM",1.04 nM⁻¹
same,Fold Change/nM,"introns of gene TCEB3, regression over control, 3, 10, 30 nM",1.07 nM⁻¹
same,Fold Change/nM,"introns of gene TFRC, regression over control, 3, 10, 30 nM",1.04 nM⁻¹
same,Fold Change/nM,"introns of gene TGFB1, regression over control, 3, 10, 30 nM",1.04 nM⁻¹
same,Fold Change/nM,"introns of gene TIMM23, regression over control, 3, 10, 30 nM",1.05 nM⁻¹
same,Fold Change/nM,"introns of gene TIMP1, regression over control, 3, 10, 30 nM",1.08 nM⁻¹
same,Fold Change/nM,"introns of gene TJP2, regression over control, 3, 10, 30 nM",1.06 nM⁻¹
same,Fold Change/nM,"introns of gene TMBIM1, regression over control, 3, 10, 30 nM",1.04 nM⁻¹
same,Fold Change/nM,"introns of gene TMEM161B // ITGA2B, regression over control, 3, 10, 30 nM",1.04 nM⁻¹
same,Fold Change/nM,"introns of gene TNFRSF25 // PLEKHG5, regression over control, 3, 10, 30 nM",1.04 nM⁻¹
same,Fold Change/nM,"introns of gene TNIK, regression over control, 3, 10, 30 nM",1.06 nM⁻¹
same,Fold Change/nM,"introns of gene TNIP1, regression over control, 3, 10, 30 nM",1.06 nM⁻¹
same,Fold Change/nM,"introns of gene TRAF1, regression over control, 3, 10, 30 nM",1.06 nM⁻¹
same,Fold Change/nM,"introns of gene TRIM8, regression over control, 3, 10, 30 nM",1.04 nM⁻¹
same,Fold Change/nM,"introns of gene TRPC4AP, regression over control, 3, 10, 30 nM",1.04 nM⁻¹
same,Fold Change/nM,"introns of gene UBE1L2, regression over control, 3, 10, 30 nM",1.04 nM⁻¹
same,Fold Change/nM,"introns of gene UBE2Z, regression over control, 3, 10, 30 nM",1.05 nM⁻¹
same,Fold Change/nM,"introns of gene USP8, regression over control, 3, 10, 30 nM",1.04 nM⁻¹
same,Fold Change/nM,"introns of gene UTX // UTY (chrX, cluster 3975467), regression over control, 3, 10, 30 nM",1.06 nM⁻¹
same,Fold Change/nM,"introns of gene UTY // UTX (chrY, cluster 4035017), regression over control, 3, 10, 30 nM",1.07 nM⁻¹
same,Fold Change/nM,"introns of gene VIL2, regression over control, 3, 10, 30 nM",1.08 nM⁻¹
same,Fold Change/nM,"introns of gene VPS4B, regression over control, 3, 10, 30 nM",1.04 nM⁻¹
same,Fold Change/nM,"introns of gene WDR1, regression over control, 3, 10, 30 nM",1.04 nM⁻¹
same,Fold Change/nM,"introns of gene WIPI2, regression over control, 3, 10, 30 nM",1.05 nM⁻¹
same,Fold Change/nM,"introns of gene WSB1, regression over control, 3, 10, 30 nM",1.04 nM⁻¹
same,Fold Change/nM,"introns of gene XPO1 // THRB, regression over control, 3, 10, 30 nM",1.06 nM⁻¹
same,Fold Change/nM,"introns of gene YIPF5, regression over control, 3, 10, 30 nM",1.06 nM⁻¹
same,Fold Change/nM,"introns of gene YTHDC1, regression over control, 3, 10, 30 nM",1.04 nM⁻¹
same,Fold Change/nM,"introns of gene YY1, regression over control, 3, 10, 30 nM",1.05 nM⁻¹
same,Fold Change/nM,"introns of gene ZC3H12A, regression over control, 3, 10, 30 nM",1.04 nM⁻¹
same,Fold Change/nM,"introns of gene ZFP91 // CNTF, regression over control, 3, 10, 30 nM",1.06 nM⁻¹
same,Fold Change/nM,"introns of gene ZNF313, regression over control, 3, 10, 30 nM",1.04 nM⁻¹

# Reference: patent US20100021918A1, “METHOD FOR ASSAYING ACTION OF ANTITUMOR AGENT USING SPLICING DEFECTS AS INDEX” (Eisai R&D Management Co., Ltd., priority 2007, published 2010)
